The results in this text go back to article PMC11543299.

No constants are given. Whether binding was seen depends on the method and setting. In cells and extracts the contact can be indirect. A result given as binding can be weak or reduced; the word gives no strength. Tags and fused reporters may be left off the sequences shown.

The assay concerns the target GST-JrVIP1 (Juglans regia (walnut)). Briefly: pull-down; GST or GST-JrVIP1 immobilized on glutathione HiCap matrix, incubated with JrPP2A-His; western blot with anti-His antibody; performed three times. (In general: A western blot detects proteins with antibodies after separation by electrophoresis.)

B1: JrPP2A09-His (protein, UniProt A0A2I4G9N5 1-476)
chain: MYSGSSDGESHEAVQRRIPPAASMPWVRNLRRFIGSGDGLGSEALMELETKRILLDIFKEKQQKSAEAGTIPSFYKKKPEEGSISHRVQRLAKYRFLKKQSDLLLNADDLDAMWFCLRENCVIDDATGAEKMNYEDFCHIASVCTEQIGPKCRRFFSPSNFMKFEKDESGRIAILPFYLYVMRTVSLTQARIDMSELDEDSDGFLQAHEMEAYIRGLIPNLAQLRDMPAAFVQMYCRIAAHKFFFFCDPHRRGKACIKKVLLSNCLQELMELHQESEEEVTDTEQAENWFSLTSAQRICDMFLALDKDMNGTLSKQELREYADGTLTEIFIERVFDEHVRRGKSGGGNAREMDFESFLDFVLALENKDTPEGLTYLFRCLDLNGRGFLTTADIHSLFRDVHQKWIDGGNYELCIEDVRDEIWDMVKPADSLRITLADLLNCKQGGTVASMVIDVRGFWAHDNRENLLQEEEEPEEE
In the case of B1, the binding entry is reported as “binds”.

B2: JrPP2A07-His (protein, UniProt A0A2I4EZA1 1-305)
chain: MSDLDRQIEQLKKCEPLKESEVKALCLKAMEILVEESNVQRVDAPVTICGDIHGQFYDMKELFKVGGDCPKTNYLFLGDFVDRGFYSVETFLLLLALKVRYPDRITLIRGNHESRQITQVYGFYDECLRKYGSVNVWRYCTDIFDYLSLSALIENKIFSVHGGLSPAISTLDQIRTIDRKQEVPHDGAMCDLLWSDPEDIMDGWGVSPRGAGYLFGGSVVTSFNHSNNIDYICRAHQLVMEGYKWMFNSQIVTVWSAPNYCYRCGNVAAILELDENLNKQFRVFDAAPQESRGTPAKKPAPDYFL
In the case of B2, the binding result is reported as “binds”.
